Our source for the binding values is paper PMC8675926.

Amino acid sequences for entries named in this document (tags omitted). A change or cut given only in a name is not applied to a line headed by its entry.
UniProt Q12692: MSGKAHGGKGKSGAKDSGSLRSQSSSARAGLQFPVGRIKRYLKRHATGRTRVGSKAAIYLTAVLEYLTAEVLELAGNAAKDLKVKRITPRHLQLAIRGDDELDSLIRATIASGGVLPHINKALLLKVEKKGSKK

No constants are given. Whether binding was seen depends on the method and setting. In cells and extracts the contact can be indirect. Some results given as binding are weak or reduced against the parent protein; the word gives no strength. Tags and fused reporters may be left off the sequences shown.

The target in assay [1] is T1, Chz1, VSV-tagged (histone chaperone) (S. cerevisiae) (UniProt P40019).
T1 sequence: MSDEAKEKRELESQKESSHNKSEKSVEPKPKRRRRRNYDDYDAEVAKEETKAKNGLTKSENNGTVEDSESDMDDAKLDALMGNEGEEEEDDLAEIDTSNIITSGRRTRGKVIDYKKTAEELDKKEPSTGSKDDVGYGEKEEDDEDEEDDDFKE
The experiment in a line: co-IP; reciprocal: VSV-tagged Chz1 precipitated from yeast lysates with VSV agarose beads for 16 hours in TAP-IP buffer; blot with anti-FLAG; in triplicate.

For assay [2], the target named is H2A.Z (HTZ1), C-terminally 3xFLAG tagged (S. cerevisiae), Q12692. The experiment in a line: co-IP; FLAG-tagged histone constructs precipitated from yeast lysates with FLAG M2 agarose beads for 1.5 hours in TAP-IP buffer (50 mM Tris pH 7.8, 150 mM NaCl, 0.15% NP-40); blots with anti-VSV, anti-Nap1, anti-FLAG; in triplicate. Conditions: remark: other sources report otherwise.

In assay [3] the target is H2A.Z (HTZ1), C-terminally 3xFLAG tagged (S. cerevisiae) (UniProt Q12692). Described as above.

For “H2A.Z (HTZ1), C-terminally 3xFLAG tagged (from UniProt Q12692 1-134) (other; other documents disagree on this pair)”, the binding result in assay [1] is given as “binds”.

B1: Chz1, VSV-tagged (histone chaperone), P40019 1-153 (protein)
chain: T1 sequence
On to B1, for which the binding entry in assay [2] is on record as “binds”.

B2: Nap1 (histone chaperone) (protein, UniProt P25293 1-417)
chain: MSDPIRTKPKSSMQIDNAPTPHNTPASVLNPSYLKNGNPVRAQAQEQDDKIGTINEEDILANQPLLLQSIQDRLGSLVGQDSGYVGGLPKNVKEKLLSLKTLQSELFEVEKEFQVEMFELENKFLQKYKPIWEQRSRIISGQEQPKPEQIAKGQEIVESLNETELLVDEEEKAQNDSEEEQVKGIPSFWLTALENLPIVCDTITDRDAEVLEYLQDIGLEYLTDGRPGFKLLFRFDSSANPFFTNDILCKTYFYQKELGYSGDFIYDHAEGCEISWKDNAHNVTVDLEMRKQRNKTTKQVRTIEKITPIESFFNFFDPPKIQNEDQDEELEEDLEERLALDYSIGEQLKDKLIPRAVDWFTGAALEFEFEEDEEEADEDEDEEEDDDHGLEDDDGESAEEQDDFAGRPEQAPECKQS
In the case of B2, the binding entry in assay [3] is given as “binds”.
